# Measurements reported in PubChem BioAssay AID1224830 (NIAID, 2016)
# Test: 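Genes whose knock-down alters the TNF-alpha reporter response to LPS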 (primary screen)
# Cells: human THP-1 monocytic leukaemia cells, TNF dual-luciferase reporter clone, PMA-differentiated to macrophage-like cells
# Reagent: siRNA pool against human genes, 50 nM
# Time to read-out: LPS for 4 h, given about 3 days after siRNA transfection
# Conditions: bacterial LPS (TLR4 ligand), 10 ng/ml
# Read-out: 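Ratio of firefly to renilla light, scaled to the plate median and expressed as a robust z-score per replicate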
# Direction: TNF reporter robust z-score: higher = stronger TNF reporter response to LPS
# Hit rule: 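Each well counts as active if its z-score is over 2.8 or under -1.5; controls are left without a call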
# The whole screen tested about 18,000 reagents; this is an unselected part. Of all reagents, about 2,900 (16%) got an active call. 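Calls are made per well; low scores hint the gene aids the LPS response, high scores that it dampens it.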 Entries without a mark were called inactive. Repeated entries: four replicate wells of each siRNA pool.
target,TNF reporter robust z-score
IGDCC3 (GeneID 9543),-1.67 (active)
IGDCC3 (GeneID 9543),-1.55 (active)
IGDCC3 (GeneID 9543),-1.57 (active)
IGDCC3 (GeneID 9543),-1.56 (active)
PIK3C2B (GeneID 5287),-0.9
PIK3C2B (GeneID 5287),-0.8
PIK3C2B (GeneID 5287),-0.25
PIK3C2B (GeneID 5287),-0.31
TCEANC2 (GeneID 127428),-1.5
TCEANC2 (GeneID 127428),-1.63 (active)
TCEANC2 (GeneID 127428),-1.27
PAXIP1 (GeneID 22976),-0.12
PAXIP1 (GeneID 22976),0.04
PAXIP1 (GeneID 22976),-0.76
PAXIP1 (GeneID 22976),-1.11
PRKDC (GeneID 5591),1.17
PRKDC (GeneID 5591),4.22 (active)
PRKDC (GeneID 5591),1.7
PRKDC (GeneID 5591),0.31
FIP1L1 (GeneID 81608),1.02
FIP1L1 (GeneID 81608),-0.18
FIP1L1 (GeneID 81608),-0.4
FIP1L1 (GeneID 81608),-0.01
COL5A3 (GeneID 50509),1.42
COL5A3 (GeneID 50509),1.13
COL5A3 (GeneID 50509),0.46
COL5A3 (GeneID 50509),1.38
SMTNL2 (GeneID 342527),0.62
SMTNL2 (GeneID 342527),1.54
SMTNL2 (GeneID 342527),1.46
SMTNL2 (GeneID 342527),1.78
EMX1 (GeneID 2016),-0.15
EMX1 (GeneID 2016),-0.01
EMX1 (GeneID 2016),-1.3
EMX1 (GeneID 2016),-0.53
ELAPOR2 (GeneID 222223),0.58
ELAPOR2 (GeneID 222223),-0.15
ELAPOR2 (GeneID 222223),0.92
ELAPOR2 (GeneID 222223),0.45
MFAP5 (GeneID 8076),1.05
MFAP5 (GeneID 8076),1.74
MFAP5 (GeneID 8076),0.89
MFAP5 (GeneID 8076),0.09
DNAJC24 (GeneID 120526),0.13
DNAJC24 (GeneID 120526),0.72
DNAJC24 (GeneID 120526),2.29
DNAJC24 (GeneID 120526),-0.47
TNF (GeneID 7124),0.5
TNF (GeneID 7124),0.28
TNF (GeneID 7124),0.15
TNF (GeneID 7124),1.78
RSPH10B (GeneID 222967),-0.67
RSPH10B (GeneID 222967),-0.49
RSPH10B (GeneID 222967),-0.81
RSPH10B (GeneID 222967),-0.21
CBLN3 (GeneID 643866),0.72
CBLN3 (GeneID 643866),3.3 (active)
CBLN3 (GeneID 643866),0.43
CBLN3 (GeneID 643866),0.61
CELF2 (GeneID 10659),0.59
CELF2 (GeneID 10659),2.49
CELF2 (GeneID 10659),1.81
CELF2 (GeneID 10659),1.32
CLEC4A (GeneID 50856),-1.7 (active)
CLEC4A (GeneID 50856),-1.28
CLEC4A (GeneID 50856),-1.95 (active)
CLEC4A (GeneID 50856),-2.01 (active)
NAGPA (GeneID 51172),1.42
NAGPA (GeneID 51172),0.43
NAGPA (GeneID 51172),1.08
NAGPA (GeneID 51172),1.82
DAAM1 (GeneID 23002),0.82
DAAM1 (GeneID 23002),2.55
DAAM1 (GeneID 23002),1.51
DAAM1 (GeneID 23002),2.69

Targets above whose gene name starts with M or m:
target,TNF reporter robust z-score
MFAP5 (GeneID 8076),1.05
MFAP5 (GeneID 8076),1.74
MFAP5 (GeneID 8076),0.89
MFAP5 (GeneID 8076),0.09
